{
  "sequences": {"note": "Protein sequences, listed by entry. Tags and fused reporters are not part of them. Lines headed by an entry give the natural chain unless they say otherwise; changes in a name come on top.", "UniProt Q9LG05": "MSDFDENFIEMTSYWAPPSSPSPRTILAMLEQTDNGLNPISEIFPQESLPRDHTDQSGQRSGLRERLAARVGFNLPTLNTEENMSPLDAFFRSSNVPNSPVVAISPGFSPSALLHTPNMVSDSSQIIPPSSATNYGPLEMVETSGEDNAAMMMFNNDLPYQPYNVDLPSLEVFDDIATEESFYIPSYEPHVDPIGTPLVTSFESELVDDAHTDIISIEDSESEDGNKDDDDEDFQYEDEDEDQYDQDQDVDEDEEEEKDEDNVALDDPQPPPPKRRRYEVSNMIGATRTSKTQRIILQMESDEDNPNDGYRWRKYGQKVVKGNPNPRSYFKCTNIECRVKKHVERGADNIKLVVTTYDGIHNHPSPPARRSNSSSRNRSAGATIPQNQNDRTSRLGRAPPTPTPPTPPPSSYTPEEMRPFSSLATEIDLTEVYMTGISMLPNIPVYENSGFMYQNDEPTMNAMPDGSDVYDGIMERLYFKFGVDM"},
  "source": "paper PMC3591269",
  "molecular_target": "MINI3 (WRKY10) (Arabidopsis) (UniProt Q9LG05)",
  "assay": "EMSA",
  "settings": "much weaker affinity than W1/Wi; 25 mM Hepes-KOH pH 7.2, 40 mM KCl, 1 mM DTT, 1 mM EDTA, 10% glycerol, 0.01 uM ZnCl2, 2 ug poly-dIdC, 3 ng probe, 1 ug protein in 20 ul; room temperature 30 min; 6% gel; recombinant protein; residues 1-485; protein details: His-tag (C-terminal as stated, pDEST17); label: alpha-35S dATP (PCR); probe letters rebuilt from the primers and the genome",
  "note": "For at least one entry, the source does not settle the construct or the ends of the probe. The comparison behind a weaker result is the experiment's own reference, which may not be listed here.",
  "data": [
    {"sequence": "GACATTACTGTCATCGTATATGAAACATTATTCTAATAATTGTTATAAAAATACCGGAGTTAAACTAGATTGATTATCACCGAGATTTTATATTTGTCAAGATATATAGATGGTCCATCGAAAGGATTGGTGCTTCCAAAACCTTCGATGTCACCTCCTGA (double strand) [W3-box fragment (MINI3 promoter)]", "values": [
      {"measurement": "binding result", "value": "binds more weakly"}
    ]}
  ]
}
